Data taken from publication PMC6052347, “Structure and Function of the Campylobacter jejuni Chromosome Replication Origin”.
The exact form of at least one protein or probe is not confirmed. A weaker result is weaker than the reference pair of the same experiment. Where a protein sequence is shown, tags need not be part of it.

Molecular target: T1, 6HisCj1509 (UniProt Q0P820)
T1 sequence (looked up, limits assumed): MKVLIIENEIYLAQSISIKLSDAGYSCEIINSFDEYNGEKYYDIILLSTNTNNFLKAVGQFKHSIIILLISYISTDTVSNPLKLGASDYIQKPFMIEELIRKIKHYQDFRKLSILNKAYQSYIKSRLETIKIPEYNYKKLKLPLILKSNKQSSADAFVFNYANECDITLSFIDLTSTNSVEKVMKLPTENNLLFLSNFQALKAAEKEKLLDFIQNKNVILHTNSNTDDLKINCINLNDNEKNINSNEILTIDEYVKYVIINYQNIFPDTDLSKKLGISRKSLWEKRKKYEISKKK
Assay: EMSA
Conditions: lower complex intensity than box 2; EMSA: room temperature, 15 min, up to 30 nM DnaA or 400 nM Cj1509, 4% PAGE in 1x TBE; box probes 0.4 uM; binding buffer not given (as in Jaworski 2016); recombinant protein; protein details: N-terminal 6xHis (pET28a); label: FAM 5' on E7

Sequence | binding result
GTGCCCTGGTCTGG / TTTGAAGAAAGTATCAATTTCAACA / TGTTGAAATTGATACTTTCTTCAAACCAGACCAGGGCAC [Cj1509 box 3 probe (E7-E12-E13)] | binds more weakly
GTGCCCTGGTCTGG / TTTGAAGAATTTCACAATTTCAACA / TGTTGAAATTGTGAAATTCTTCAAACCAGACCAGGGCAC [Cj1509 box 1 probe (E7-E8-E9)] | binds more weakly
